# From PubChem BioAssay AID493014 (National Center for Advancing Translational Sciences (NCATS), 2011)
# Some of the results follow. The main result of the screen is listed elsewhere. These columns were measured beside it and carry no call. The list favours compounds with an active or inconclusive main result. Words in brackets tell the shape of the fitted curve; partial curves, single points and poor fits give uncertain potencies.
# Assay: qHTS Assay to Find Inhibitors of Chronic Active B-Cell Receptor Signaling
# Conditions: ABC-DLBCL IkBa-CBG/CBR reporter, luminescence ratio (green luciferase fused to IkBa over red control in TMD8 lymphoma cells), 4 h
# How it was run: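 Cell line TMD8 (human ABC DLBCL), stably expressing tet-inducible CBG68-IkBa fusion and CBR; IMDM/0.5% FBS; cpd up to 46 uM; dox induction, 4 h, 37C/5% CO2; dual luminescence; green/red ratio; MG132 control.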
# [1] = measured here: CBR red luminescence, cell number
# [2] = measured here: IkBa-CBG green luminescence
Structure (SMILES),AC50 [1],AC50 [2]
COc1cc(C(=O)Nc2ccc(NC(=O)C3CC3)nc2)cc(OC)c1OC,"5.01 µM [rising, partial curve, poor fit]",
COCCN1CC(O)=C(c2nc3ccccc3c(=O)[nH]2)C1=N,"5.8 µM [rising, partial curve, poor fit]",
CC(CC(=O)N1CCN(c2ccccc2F)CC1)c1ccccc1 (stereo not given),"23.1 µM [rising, single point]",
Cc1cs/c(=N\N=C\c2cccc([N+](=O)[O-])c2)n1Cc1ccco1,"1.64 µM [rising, partial curve, poor fit]",
Cc1nnc(SCc2nc3sc(C(=O)O)c(C)c3c(=O)[nH]2)s1,"17.8 µM [falling, partial curve]",
CC(N=Cc1c(O)c2ccccc2oc1=O)C(=O)O (stereo not given),"2.51 µM [falling, partial curve]",
CCOC(=O)c1[nH]c(C)c(C(=O)OC(C)C(=O)Nc2ncc(Cl)cc2Cl)c1C (stereo not given),"1.12 µM [falling, partial curve]",
CCCOC(=O)c1c(NC(=O)CCC(=O)O)sc2c1CCCCC2,"6.31 µM [falling, partial curve, poor fit]",
Cc1cc(-c2nn(-c3ccccc3F)cc2CNCCc2cnc[nH]2)c(C)s1,"20 µM [rising, single point]",
O=C(CN1C(=O)NC2(CCCCC2)C1=O)N1CCOCC1,"9.2 µM [rising, partial curve, poor fit]",
COc1ccc2cc3c(N)c(C(=O)N4CCCC4)sc3nc2c1,"1.84 µM [falling, partial curve, poor fit]",
O=C(Nc1nc(-c2ccncc2)cs1)C1COc2ccccc2O1 (stereo not given),"3.26 µM [rising, partial curve, poor fit]",
Cc1ccccc1NC(=O)NC1CCS(=O)(=O)C1 (stereo not given),"35.5 µM [rising, single point]",
CNC(=S)N1N=C(c2ccccc2)CC1c1ccc(Br)cc1 (stereo not given),"6.31 µM [rising, full curve, poor fit]",
CCCCN(CC)CCCNC(=O)c1ccc2c(c1)N(Cc1ccc(C)cc1)C(=O)c1ccccc1S2,"7.94 µM [falling, partial curve, poor fit]",
CCCCCCCN1C/C=C\C(c2ccc(OC)cc2)N(Cc2ccc(F)cc2)C(=O)[C@H]1Cc1ccccc1 (stereo not given in full),"3.55 µM [rising, full curve, poor fit]",
O=C(COC(=O)/C=C/c1ccccc1[N+](=O)[O-])Nc1ccc(OCc2ccccc2)cc1,"2.06 µM [rising, full curve, poor fit]",
COc1ccc(CCNC(=O)C2CCN(S(=O)(=O)N3CCC4(CC3)OCCO4)CC2)cc1OC,"1.3 µM [rising, full curve, poor fit]",
O=C(N/N=C/c1ccc[nH]1)c1ccc([N+](=O)[O-])cc1,"5.17 µM [rising, single point]",
CCc1ccc(N(CC(=O)Nc2nc3ccc(C)cc3s2)S(=O)(=O)c2c(C)noc2C)cc1,"1.84 µM [falling, partial curve, poor fit]",
O=C1N/C(=C/c2cccs2)C(=O)N1Cc1ccc(F)cc1,"35.5 µM [rising, partial curve, poor fit]",

Structure (SMILES),AC50 [1],AC50 [2]
COc1cccc(NC(=O)COc2ccc(Br)c(C)c2)c1,"12.6 µM [falling, partial curve, poor fit]",
CCc1nnc(NC(=O)CSc2nnc(-c3ccccc3O)n2CC)s1,"5.17 µM [rising, full curve, poor fit]",
O=C(O)c1cc(O)ccc1N=Nc1ccccc1,"7.94 µM [falling, partial curve, poor fit]",
O=C(CCCN1C(=O)/C(=C\c2ccco2)SC1=S)Nc1ccc2ccccc2c1,"9.2 µM [falling, partial curve, poor fit]",
N/C(Cc1cccs1)=N\OC(=O)COc1ccc(Br)cc1,"23.1 µM [falling, single point]",
O=C(O)CC(NC(=O)C(c1ccccc1)c1ccccc1)c1ccco1 (stereo not given),"2.91 µM [falling, single point]",
O=C(NCC1COc2ccccc2O1)c1ccc(NC(=O)C2CCCO2)cc1 (stereo not given),"6.51 µM [falling, single point]",
Cc1ccc(C(=O)NNC(=O)c2ccncc2)cc1C,"15.8 µM [falling, single point]",
COc1ccc(-c2nnn(CC(=O)N(Cc3ccco3)C(C(=O)NCC3CCCO3)c3ccco3)n2)cc1 (stereo not given),"23.1 µM [rising, single point]",
O=C(Nc1ccc(N2CCN(C(=O)c3ccc(Cl)cc3)CC2)cc1)c1ccc([N+](=O)[O-])o1,"3.16 µM [falling, partial curve, poor fit]","2.82 µM [falling, partial curve, poor fit]"
COc1nc(N2CCOCC2)nc(C)c1[N+](=O)[O-],"23.1 µM [rising, single point]",
O=C(Cn1c(=O)n(Cc2ccco2)c(=O)c2ccccc21)NCC1CCCO1 (stereo not given),"0.13 µM [falling, full curve, poor fit]",
COc1cccc(CN2C(=O)N(C(C)C)C(N(O)C(=O)NC(C)C)C2(C)C)c1OC (stereo not given),"0.631 µM [falling, full curve, poor fit]",
COc1ccc(NS(=O)(=O)c2cccc(C(=O)NNC(=O)CNC(=O)c3ccccc3F)c2)cc1,"23.1 µM [rising, single point]",
Cc1cc(-n2c(C)cc(C(=O)CN3C(=O)NC4(CCCCC4C)C3=O)c2C)no1 (stereo not given),"35.5 µM [falling, partial curve, poor fit]",
CNc1nnc(-c2ccc(C)cc2)c2ccccc12,"3.16 µM [rising, partial curve, poor fit]",
Cc1ccc(NC(=O)C/C(N)=N/OC(=O)Nc2ccc(C)c(Cl)c2)cc1,"2.31 µM [rising, partial curve, poor fit]",
Cc1nc2cc3ccccc3cc2c(=O)[nH]1,"1.78 µM [falling, full curve]",
CCCOc1c(Cl)cc(/C=N/O)cc1OCC,,"23.1 µM [falling, single point]"
CCOC(=O)C1(Cc2cccc(OC)c2)CCN(C(C)CC(C)(C)O)CC1 (stereo not given),"3.55 µM [rising, full curve, poor fit]",
COC(=O)c1ccc(NC(=O)CN(c2ccc(OC)cc2)S(C)(=O)=O)cc1,"1.64 µM [rising, partial curve, poor fit]",

Structure (SMILES),AC50 [1],AC50 [2]
Oc1ccc2nnc3c(Br)cnn3c2c1,"35.5 µM [falling, single point]",
CC(C)C(=O)c1ccc(O)c(O)c1,"8.91 µM [rising, partial curve]",
CCOC(=O)N1CCN(S(=O)(=O)CCNC(=O)c2ccccc2)CC1,"1.03 µM [rising, partial curve, poor fit]",
COc1ccccc1CNC(=O)CSc1nc(N)c(C#N)c(-c2cccs2)c1C#N,"1.78 µM [falling, partial curve]",
Cc1cc(/C(N)=N/OC(=O)c2ccc(Cl)cc2)no1,"0.501 µM [rising, full curve, poor fit]",
COc1ccc(OC)c(Nc2nc(NCCO)c3ccccc3n2)c1,"17.8 µM [falling, single point]",
Cc1ccc(S(=O)(=O)NCCCNc2ccc([N+](=O)[O-])cc2)cc1,"35.5 µM [falling, single point]",
CSc1ccc(S(=O)(=O)NCc2ccc(Cl)cc2Cl)cc1,"29.1 µM [rising, single point]",
O=C(NCCc1ccc(F)cc1)c1ccc([N+](=O)[O-])cc1,"7.08 µM [rising, partial curve, poor fit]",
CCCC1(CCC)NC(=O)N(CC(=O)c2cc(C)n(-c3ccc4c(c3)OCO4)c2C)C1=O,"1.64 µM [falling, partial curve, poor fit]",
Cc1ccc(NC(=O)c2cc(NC(=O)c3ccco3)ccc2N2CCOCC2)cc1Cl,"0.231 µM [falling, full curve, poor fit]",
NS(=O)(=O)c1c(Sc2ccccc2C(=O)O)ccc2ccccc12,"11.2 µM [falling, single point]","0.282 µM [rising, full curve]"
CC(=O)c1cccc(NC(=O)N2CCCC2C(=O)Nc2ccc3c(c2)OCO3)c1 (stereo not given),"22.4 µM [rising, single point]",
CCCNC(=O)c1ccccc1NC(=O)CN(c1ccccc1)S(=O)(=O)N(C)C,"11.2 µM [falling, partial curve]",
Cc1ccc(/C=C/C(=O)NC2CCCCCCC2)o1,"29.1 µM [falling, single point]",
COCCCNS(=O)(=O)c1cccc(S(=O)(=O)c2cccc(S(=O)(=O)NCCCOC)c2)c1,"11.2 µM [falling, single point]",
COc1ccc2oc(=O)c(C(=O)N3CCCC3)cc2c1,"4.47 µM [rising, full curve, poor fit]",
Cc1ccc(C(=O)NCc2ccco2)cc1,"28.2 µM [falling, single point]",
Oc1ccccc1-c1nc2c3ccccc3c3ccccc3c2[nH]1,"12.6 µM [falling, partial curve, poor fit]",
COc1cc(CN2CCC(CO)(Cc3cccc(C(F)(F)F)c3)CC2)ccc1F,"15.8 µM [falling, partial curve, poor fit]",
CCc1c(C)nc(Nc2nc(C)c3cc(OC)ccc3n2)[nH]c1=O,"15.8 µM [falling, single point]",

# 3 entries from above, reformatted.
Structure (SMILES) | AC50 [1] | AC50 [2]
COCCCNS(=O)(=O)c1cccc(S(=O)(=O)c2cccc(S(=O)(=O)NCCCOC)c2)c1 | 11.2 µM [falling, single point] | 
COc1ccc2oc(=O)c(C(=O)N3CCCC3)cc2c1 | 4.47 µM [rising, full curve, poor fit] | 
Cc1ccc(C(=O)NCc2ccco2)cc1 | 28.2 µM [falling, single point] | 
